Results are given in words; binding and its absence hold for the method and conditions named. For part of these data: Binding seen in cells or lysates may run through a third protein. Some binding calls cover weakened binding; strength is not graded here. For part of these data: Where a sequence is shown, tags or fusion partners need not be part of it.

Chains of the proteins cited; added tags and fusions are not shown. Lines headed by an entry give the natural chain unless they say otherwise; changes in a name come on top. Residues count along the entry.
UniProt P40224, residues 22-93: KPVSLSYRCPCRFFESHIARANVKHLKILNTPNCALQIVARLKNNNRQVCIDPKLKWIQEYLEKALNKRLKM
UniProt O15218: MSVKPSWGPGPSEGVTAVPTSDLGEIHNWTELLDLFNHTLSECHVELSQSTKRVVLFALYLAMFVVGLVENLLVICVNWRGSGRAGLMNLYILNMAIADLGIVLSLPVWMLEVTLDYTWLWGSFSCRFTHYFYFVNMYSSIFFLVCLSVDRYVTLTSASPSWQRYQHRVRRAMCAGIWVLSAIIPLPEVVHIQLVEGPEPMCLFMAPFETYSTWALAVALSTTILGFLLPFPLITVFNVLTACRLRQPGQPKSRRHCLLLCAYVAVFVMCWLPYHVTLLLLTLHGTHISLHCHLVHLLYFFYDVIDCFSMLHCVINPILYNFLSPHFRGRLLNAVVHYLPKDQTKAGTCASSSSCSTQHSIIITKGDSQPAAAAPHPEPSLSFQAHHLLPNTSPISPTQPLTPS
UniProt Q9ULZ1: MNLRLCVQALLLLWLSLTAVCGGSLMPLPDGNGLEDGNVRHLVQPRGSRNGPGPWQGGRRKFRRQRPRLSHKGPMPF
UniProt P51671, residues 24-97: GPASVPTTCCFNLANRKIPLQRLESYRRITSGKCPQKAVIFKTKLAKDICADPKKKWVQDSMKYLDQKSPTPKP
UniProt Q99731, residues 22-98: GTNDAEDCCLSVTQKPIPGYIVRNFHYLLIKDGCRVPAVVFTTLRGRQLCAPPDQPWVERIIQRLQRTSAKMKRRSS
UniProt P78556, residues 27-96: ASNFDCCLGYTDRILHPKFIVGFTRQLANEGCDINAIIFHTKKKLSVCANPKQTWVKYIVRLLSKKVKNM
UniProt O00585, residues 24-134: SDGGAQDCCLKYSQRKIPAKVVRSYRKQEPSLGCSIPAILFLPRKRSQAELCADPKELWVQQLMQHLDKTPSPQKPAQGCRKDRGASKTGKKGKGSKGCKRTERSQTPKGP
UniProt Q9Y258, residues 24-94: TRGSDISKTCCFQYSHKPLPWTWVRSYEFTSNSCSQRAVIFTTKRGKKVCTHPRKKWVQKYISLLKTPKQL
UniProt P19875, residues 35-107: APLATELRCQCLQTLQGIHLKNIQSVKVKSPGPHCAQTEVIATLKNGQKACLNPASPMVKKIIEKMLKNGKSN
UniProt P19876, residues 35-107: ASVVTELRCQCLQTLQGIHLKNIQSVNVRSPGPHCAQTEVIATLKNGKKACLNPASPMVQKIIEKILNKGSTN
UniProt P02778, residues 22-98: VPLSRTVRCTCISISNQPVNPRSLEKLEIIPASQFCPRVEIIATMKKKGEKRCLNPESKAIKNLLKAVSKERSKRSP

This note sets out measurements from article doi:10.1101/2024.06.01.596940 (bioRxiv, 2024).

T1: mouse GPR182 (untagged), stably expressed on HEK293T cells (mouse) (UniProt P43142)
T1 sequence: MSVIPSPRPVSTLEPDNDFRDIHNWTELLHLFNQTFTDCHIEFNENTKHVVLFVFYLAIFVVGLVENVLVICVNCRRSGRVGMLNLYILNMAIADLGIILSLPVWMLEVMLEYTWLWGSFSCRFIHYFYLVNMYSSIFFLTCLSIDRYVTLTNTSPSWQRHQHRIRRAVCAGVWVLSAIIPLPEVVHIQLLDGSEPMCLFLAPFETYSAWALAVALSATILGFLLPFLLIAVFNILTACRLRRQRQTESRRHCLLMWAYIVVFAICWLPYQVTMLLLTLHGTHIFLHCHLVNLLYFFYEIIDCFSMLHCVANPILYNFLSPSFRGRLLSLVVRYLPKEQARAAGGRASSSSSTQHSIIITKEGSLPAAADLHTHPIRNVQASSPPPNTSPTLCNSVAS

B1: human CCL24 (ligand, UniProt O00175 27-119)
chain: VVIPSPCCMFFVSKRIPENRVVSYQLSSRSTCLKAGVIFTTKKGQQFCGDPKQEWVQRYMKNLDAKQKKASPRARAVAVKGPVQRYPGNQTTC
B2: human CXCL11 (ligand, UniProt O14625 22-94)
chain: FPMFKRGRCLCIGPGVKAVKVADIEKASIMYPSNNCDKIEVIITLKENKGQRCLNPKSKQARLIIKKVERKNF
B3: human CCL1 (ligand, UniProt P22362 24-96)
chain: KSMQVPFSRCCFSFAEQEIPLRAILCYRNTSSICSNEGLIFKLKRGKEACALDTVGWVQRHRKMLRHCPSKRK
B4: human CXCL16 (ligand, UniProt Q9H2A7)
chain: NEGSVTGSCYCGKRISSDSPPSVQFMNRLRKHLRAYHRCLYYTRFQLLSWSVCGGNKDPWVQELMSCLDLKECGHAYSGIVAHQKHLLPTSPPISQASEGASSDIHTPAQMLLSTLQSTQRPTLPVGSLSSDKELTRPNETTIHTAGHSLAAGPEAGENQKQPEKNAGPTARTSAT
B5: human CCL28 (ligand, UniProt Q9NRJ3 20-127)
chain: SEAILPIASSCCTEVSHHISRRLLERVNMCRIQRADGDCDLAAVILHVKRRRICVSPHNHTVKQWMKVQAAKKNGKGNVCHRKKHHGKRNSNRAHQGKHETYGHKTPY
B6: human CXCL9 (ligand, UniProt Q07325 23-125)
chain: TPVVRKGRCSCISTNQGTIHLQSLKDLKQFAPSPSCEKIEIIATLKNGVQTCLNPDSADVKELIKKWEKQVSQKKKQKNGKKHQKKKVLKVRKSQRSRQKKTT
B7: human XCL1 (ligand, UniProt P47992 22-114)
chain: VGSEVSDKRTCVSLTTQRLPVSRIKTYTITEGSLRAVIFITKRGLKVCADPQATWVRDVVRSMDRKSNTRNNMIQTKPTGTQQSTNTAVTLTG
B8: human CXCL14 (ligand, UniProt O95715 35-111)
chain: SKCKCSRKGPKIRYSDVKKLEMKPKYPHCEEKMVIITTKSVSRYRGQEHCLHPKLQSTKRFIKWYNAWNEKRRVYEE
B9: human CXCL17 (ligand)
chain: SSLNPGVARGHRDRGQASRRWLQEGGQECECKDWFLRAPRRKFMTVSGLPKKQCPCDHFKGNVKKTRHQRHHRKPNKHSRACQQFLKQCQLRSFALPL
B10: human GPR15L (ligand)
chain: KRRPAKAWSGRRTRLCCHRVPSPNSTNLKGHHVRLCKPCKLEPEPRLWVVPGALPQV

The target of the first experiment is T1, mouse GPR182 (untagged), stably expressed on HEK293T cells (mouse). The experiment can be described thus: flow cytometry on cells. A general note: In flow cytometry, cells or beads pass a laser one at a time.
On to “mouse CXCL12 labelled with AZ647 (from UniProt P40224 22-93) (ligand)”, for which the binding result is given as “binds”.

A further experiment concerns the target human GPR182 (untagged), stably expressed on HEK293T cells (human) (UniProt O15218). The experiment can be described thus: flow cytometry on cells.
Regarding “apelin-28 (from UniProt Q9ULZ1 50-77) (peptide)”, the binding result is listed as “binds”.

As to “apelin-31 (from UniProt Q9ULZ1 47-77) (peptide)”, the binding entry is “binds”.

With “apelin-36 (from UniProt Q9ULZ1 42-77) (peptide)”, the binding entry is “binds”.

Take “human CCL11 (from UniProt P51671 24-97) (ligand)”: the binding result is listed as “binds”.

With “human CCL19 labelled with AZ647 (from UniProt Q99731 22-98) (ligand)”, the binding result was “binds”.

“human CCL20 (from UniProt P78556 27-96) (ligand)”: the binding result is listed as “binds”.

Take “human CCL21 (from UniProt O00585 24-134) (ligand)”: the binding entry is “binds”.

Turning to “human CCL26 (from UniProt Q9Y258 24-94) (ligand)”, the binding result is “binds”.

“human CXCL2 (from UniProt P19875 35-107) (ligand)”: the binding result is given as “binds”.

With “human CXCL3 (from UniProt P19876 35-107) (ligand)”, the binding result was “binds”.

Regarding “human CXCL10 (from UniProt P02778 22-98) (ligand)”, the binding result is on record as “binds”.

Consider HSDGIFTDSYSRYRKQMAVKKYLAAVLGKRYKQRVKNK (peptide, UniProt P18509) [PACAP-38], for which the binding entry is given as “binds”.

In the case of B1, the binding result was “binds”.

In the case of B2, the binding result was “binds”.

As for B3, the binding result is reported as “binds”.

Turning to B4, the binding result is listed as “binds”.

In the case of B5, the binding result is given as “binds”.

For the molecule B6, the binding result was “binds”.

B7: the binding entry is recorded as “binds”.

For the molecule B8, the binding entry is “binds”.

The target in a further experiment is human GPR182 N-terminally fused to Nanoluciferase, stably expressed on HEK293T cells (human) (UniProt O15218). As to the kind of experiment: FRET or BRET.
For the molecule “apelin-28 (from UniProt Q9ULZ1 50-77) (peptide)”, the binding result is listed as “binds”.

Consider “apelin-31 (from UniProt Q9ULZ1 47-77) (peptide)”, for which the binding entry is given as “binds”.

With “apelin-36 (from UniProt Q9ULZ1 42-77) (peptide)”, the binding entry is listed as “binds”.

Consider HSDGIFTDSYSRYRKQMAVKKYLAAVLGKRYKQRVKNK (peptide, UniProt P18509) [PACAP-38], for which the binding result is listed as “binds”.

For B9, the binding result is given as “binds”.

With B10, the binding entry is reported as “binds”.
